Source: PubChem BioAssay AID1671195 (Yale University, 2021)

- Assay: 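Knockdowns that increase or decrease uptake of fluorescent LDL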 (primary screen)
- System: human Huh7 hepatoma cells
- Reagents: siRNA pool against human genes, 18 nM
- Timing: about 2 to 2.5 days of knockdown, then 8 h LDL uptake
- Treatment: DiI-labelled LDL at 30 µg/ml for 8 h, in lipoprotein-deficient serum medium
- Measurement: 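Per-cell DiI-LDL intensity by automated imaging; well means scaled to the plate median and given as a robust z-score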
- Reading the numbers: robust z-score: higher = more LDL uptake after knockdown
- Active means: 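a gene counts as active if at least two replicate z-scores exceed ±2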
This is one part, drawn at random, of about 22,000 reagents tested. Of all reagents, about 1,510 (6.9%) got an active call. 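Active includes knockdowns raising or lowering LDL uptake; positive z-scores mean more uptake, negative mean less.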 Unmarked entries are inactive.

gene | robust z-score, replicate 1 | robust z-score, replicate 2 | robust z-score, replicate 3
TMTC4 (GeneID 84899) | -1.32 | -0.229 | -1.04
CD300LD-AS1 (GeneID 146723) | 1.83 | 1.84 | 0.988
ATOH8 (GeneID 84913) | -0.168 | 0.501 | 0.102
PARP10 (GeneID 84875) | -0.38 | -0.0103 | -0.0528
SYNE1 (GeneID 23345) | -1.25 | 0.715 | -1.24
OR2A25 (GeneID 392138) | 0.366 | 0.037 | 0.103
GLYATL1-AS1 (GeneID 283194) | 1.37 | 0.802 | 0.933
LOC401212 (retired record) (GeneID 401212) | 0.0108 | 0.0567 | 0.263
RAB5B (GeneID 5869) | -0.64 | 1.22 | -0.2
MYEF2 (GeneID 50804) | -0.0107 | 0.546 | -0.526
CST9 (GeneID 128822) | 2.06 (active) | 1.36 | 2.09
NECTIN1 (GeneID 5818) | 0.613 | 1.06 | -0.0224
MMS22L (GeneID 253714) | -0.869 | -1.14 | -0.666
IST1 (GeneID 9798) | -0.112 | -0.495 | 0.306
LINC00486 (GeneID 285045) | -0.461 | -0.519 | -0.645
CAT (GeneID 847) | 0.287 | 0.775 | 0.0367
NMRK1 (GeneID 54981) | -0.654 | -0.367 | -0.484
MAP7D3 (GeneID 79649) | -1.5 | -1.21 | -1.58
XCL1 (GeneID 6375) | 2.13 | -0.266 | 0.519
IL7R (GeneID 3575) | -0.568 | -1.03 | -0.789
B4GALT1 (GeneID 2683) | -0.847 | -1.05 | -0.634
TCL6 (GeneID 27004) | 1.55 | 1.85 | 2.76
ACSM6 (GeneID 142827) | 0.00517 | -1.32 | -0.376
AKTIP (GeneID 64400) | -0.544 | 0.514 | 0.684
PAK6 (GeneID 56924) | -0.14 | 0.644 | 1.76
DDX4 (GeneID 54514) | -0.947 | -0.722 | -1.04
MOBP (GeneID 4336) | -0.4 | -0.7 | -0.601
TAS2R9 (GeneID 50835) | 0.262 | -0.168 | 0.979

Taken from above.
Result of PAK6 (GeneID 56924) under “robust z-score, replicate 1”: -0.14
CST9 (GeneID 128822), robust z-score, replicate 2 → 1.36 (active)
